Taken from: PubChem BioAssay AID1259405 (NCATS, 2018)
Screen: 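Mouse-designed siRNAs used to find CHO productivity engineering targets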 (primary screen). System: Chinese hamster CHO-K1 ovary cells with stable secreted eGFP expression. Knock-down reagent: single siRNA against mouse genes, 0.8 pmol siRNA per well (2 µl of 400 nM stock). Timing: 3 days. Measured: 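Per-well intracellular GFP measured by laser scanning cytometry, plus viability from ATP luminescence, each relative to plate median of non-targeting control wells, in %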. Reading the numbers: GFP, % of control: higher = more GFP per well, higher productivity; viability (ATP), % of control: higher = more viable cells (more ATP). Call rule: 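a knock-down is called active if GFP reaches 120% or more of non-targeting control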.
In all, the deposit lists about 50,000 reagents; below is a part drawn at random. About 4,000 of all reagents (8%) were called active. 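Mouse siRNA library applied to hamster cells; one well for each siRNA.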

no.	gene	PubChem SID	GFP, % of control	viability (ATP), % of control	activity call
1	Krt1	SID363572119	88.1	78.1	inactive
2	Krt1	SID363573879	52.7	60.6	inactive
3	Grid2	SID363574347	47.1	50.4	inactive
4	Grid2	SID363575403	67.8	64.7	inactive
5	Grid2	SID363579979	60.3	50.1	inactive
6	Rara	SID363571093	86.5	81.6	inactive
7	Rara	SID363571445	101	57.1	inactive
8	Rara	SID363571797	58.2	85.1	inactive
9	Egln1	SID363556842	84.3	73.3	inactive
10	Egln1	SID363563746	82.4	90.4	inactive
11	Egln1	SID363587292	105	84.9	inactive
12	Cstf1	SID363550015	45.8	68.4	inactive
13	Cstf1	SID363564524	153	28.5	active
14	Cstf1	SID363588069	129	98.6	active
15	Oas1h	SID363545202	121	95.8	active
16	Oas1h	SID363548715	44.2	62.1	inactive
17	Oas1h	SID363562521	54	54.9	inactive
18	Ppp1r10	SID363581810	69.6	99.1	inactive
19	Ppp1r10	SID363589304	69.4	53.1	inactive
20	Egfr	SID363570995	107	83.4	inactive
21	Cavin2	SID363540990	19.2	32	inactive
22	Cavin2	SID363555617	84	93.6	inactive
23	Cavin2	SID363565906	146	34.6	active
24	Cysrt1	SID363543438	108	108	inactive
25	Cysrt1	SID363552931	82.1	55.6	inactive
26	Cysrt1	SID363558779	84.9	70	inactive
27	Cdon	SID363573174	68.3	58.4	inactive
28	Cdon	SID363588413	82	66.8	inactive
29	Pde3a	SID363569819	109	58	inactive
30	Pde3a	SID363576859	59.2	52.9	inactive
31	Pde3a	SID363578267	238	130	active
32	Gucy1b2	SID363573166	78.8	73.1	inactive
33	Gucy1b2	SID363577742	32.3	41.6	inactive
34	Gucy1b2	SID363581262	41.9	42.2	inactive
35	Hivep2	SID363555241	70.4	79.2	inactive
36	Hivep2	SID363563902	52.7	69.3	inactive
37	Hivep2	SID363587448	55.8	88.1	inactive
38	Tmem201	SID363546809	46.8	72.8	inactive
39	Tmem201	SID363548565	54.7	86	inactive
40	Tmem201	SID363560743	27.9	22	inactive
41	Mrpl46	SID363562204	87.8	71.8	inactive
42	Mrpl46	SID363567342	76.1	66.7	inactive
43	Mrpl46	SID363584699	90.7	55.7	inactive
44	Fam185a	SID363546516	49	41.2	inactive
45	Fam185a	SID363548272	65.4	86.7	inactive
46	Fam185a	SID363560450	59.7	77.6	inactive
47	Atp6ap2	SID363546719	31	16.1	inactive
48	Atp6ap2	SID363548475	113	124	inactive
49	Atp6ap2	SID363560653	83.6	89.6	inactive
50	Cyp2e1	SID363573042	84.3	90.2	inactive
51	Cyp2e1	SID363577618	68	59.7	inactive
52	Cyp2e1	SID363581138	69	83.3	inactive
53	S100a4	SID363582421	88.8	93.4	inactive
54	S100a4	SID363584181	76.6	81.5	inactive
55	Slc6a15	SID363547697	73.5	34.9	inactive
56	Slc6a15	SID363558466	55.1	54.8	inactive
57	Slc6a15	SID363560224	75.3	78.4	inactive
58	Nsmce2	SID363540780	85.7	109	inactive
59	Nsmce2	SID363543231	92.5	60.7	inactive
60	Nsmce2	SID363552724	38.6	45.8	inactive
61	Sh3pxd2a	SID363546940	62.8	72.1	inactive
62	Sh3pxd2a	SID363549752	60.5	70.6	inactive
63	Sh3pxd2a	SID363554822	89.7	79.7	inactive
64	Sh3pxd2a	SID363568269	17.9	40.5	inactive
65	Sh3pxd2a	SID363586328	69.2	79.8	inactive
66	Sh3pxd2a	SID363587806	107	111	inactive
67	Omg	SID363568908	123	104	active
68	Omg	SID363576300	93.8	89.4	inactive
69	Omg	SID363579116	96.3	83.8	inactive
70	Tmem60	SID363547101	93.5	102	inactive
71	Tmem60	SID363549913	67.3	85.2	inactive
72	Tmem60	SID363587967	163	180	active
73	Add2	SID363541004	89.9	84.1	inactive
74	Add2	SID363555631	67.2	72.8	inactive
75	Add2	SID363565920	104	88.7	inactive
76	Lrp10	SID363568776	86.8	84.6	inactive
77	Lrp10	SID363576168	95.3	68.1	inactive
78	Lrp10	SID363578984	89.9	68.8	inactive
79	Il36rn	SID363541516	59.7	63.8	inactive
80	Il36rn	SID363556143	75.7	87.1	inactive
81	Il36rn	SID363566432	69.9	51.3	inactive
82	Mcmbp	SID363540740	82.5	90.8	inactive
83	Mcmbp	SID363543191	37.4	36.2	inactive
84	Mcmbp	SID363552684	57.8	66.2	inactive
